Data source: PubChem BioAssay AID1224830 (NIAID, 2016)

Aim: 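Host factors that control LPS-induced TNF expression in human macrophages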 (primary screen)
Cells: human THP-1 monocytic leukaemia cells, TNF dual-luciferase reporter clone, PMA-differentiated to macrophage-like cells
Reagent: siRNA pool against human genes, 50 nM
Time to read-out: LPS for 4 h, given about 3 days after siRNA transfection
Treatment: bacterial LPS (TLR4 ligand), 10 ng/ml
Measured: 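Ratio of firefly to renilla light, scaled to the plate median and expressed as a robust z-score per replicate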
Direction: TNF reporter robust z-score: higher = stronger TNF reporter response to LPS
Rule for the call: 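Each well counts as active if its z-score is over 2.8 or under -1.5; controls are left without a call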
Here is an unselected part of about 18,000 deposited reagents. About 2,900 of them (16%) were called active. 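Calls are made per well; low scores hint the gene aids the LPS response, high scores that it dampens it.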 Repeated entries: four replicate wells of each siRNA pool.

no.	gene knocked down	TNF reporter robust z-score	outcome
1	SULF2	-0.48	inactive
2	SULF2	0.69	inactive
3	SULF2	0.86	inactive
4	SULF2	1.18	inactive
5	CRYAA	0.57	inactive
6	CRYAA	-0.96	inactive
7	CRYAA	-0.57	inactive
8	CRYAA	-0.54	inactive
9	LPAR5	0.24	inactive
10	LPAR5	-0.4	inactive
11	LPAR5	1.47	inactive
12	LPAR5	0.03	inactive
13	CNRIP1	-0.34	inactive
14	CNRIP1	0.05	inactive
15	CNRIP1	-0.4	inactive
16	CNRIP1	-0.62	inactive
17	PTPRU	-0.73	inactive
18	PTPRU	-0.67	inactive
19	PTPRU	0.02	inactive
20	PTPRU	-0.09	inactive
21	ACSL3	-0.3	inactive
22	ACSL3	0.08	inactive
23	ACSL3	-0.84	inactive
24	ACSL3	3.14	active
25	FCGRT	-1.25	inactive
26	FCGRT	-0.58	inactive
27	FCGRT	-1.15	inactive
28	FCGRT	-1.01	inactive
29	GBP3	-0.71	inactive
30	GBP3	-0.61	inactive
31	GBP3	-0.35	inactive
32	GBP3	-0.95	inactive
33	TULP2	-0.55	inactive
34	TULP2	-0.54	inactive
35	TULP2	-0.97	inactive
36	TULP2	-0.4	inactive

The list goes on; the last 5 above are carried over.
no.	gene knocked down	TNF reporter robust z-score	outcome
32	GBP3	-0.95	inactive
33	TULP2	-0.55	inactive
34	TULP2	-0.54	inactive
35	TULP2	-0.97	inactive
36	TULP2	-0.4	inactive
37	KHDC3L	0.34	inactive
38	KHDC3L	-0.18	inactive
39	KHDC3L	-0.26	inactive
40	KHDC3L	0.23	inactive
41	DYNC1LI1	-0.65	inactive
42	DYNC1LI1	-0.17	inactive
43	DYNC1LI1	-0.69	inactive
44	DYNC1LI1	0.42	inactive
45	RHPN1	0.39	inactive
46	RHPN1	0.83	inactive
47	RHPN1	0.47	inactive
48	RHPN1	1.14	inactive
49	TREML2	-0.19	inactive
50	TREML2	0.75	inactive
51	TREML2	0.15	inactive
52	TREML2	0.35	inactive
53	OR2T1	-0.59	inactive
54	OR2T1	0.01	inactive
55	OR2T1	-1.43	inactive
56	OR2T1	-0.31	inactive
57	ACOX3	-0.12	inactive
58	ACOX3	0.2	inactive
59	ACOX3	0.44	inactive
60	ACOX3	0.24	inactive
61	RASGRF1	0.91	inactive
62	RASGRF1	2.58	inactive
63	RASGRF1	-0.69	inactive
64	RASGRF1	-0.12	inactive
65	ZNF777	1.57	inactive
66	ZNF777	2.38	inactive
67	ZNF777	1.79	inactive
68	ZNF777	1.59	inactive
69	EDN1	-0.93	inactive
70	EDN1	-1.18	inactive
71	EDN1	-1.2	inactive
72	EDN1	-1.24	inactive
73	RNF148	-0.91	inactive
74	RNF148	-0.69	inactive
75	RNF148	-0.4	inactive
76	RNF148	0.4	inactive
